The list shows a part of the results. These are further read-outs of the screen, such as a control signal, another cell line or another target. No call is given for them. Most of these compounds were active or inconclusive in the main read-out, so they are no random draw. Potencies come from curve fits of mixed quality, noted in brackets.
Assay: qHTS Assay to Find Inhibitors of Chronic Active B-Cell Receptor Signaling
Settings: ABC-DLBCL IkBa-CBG/CBR reporter, luminescence ratio (green luciferase fused to IkBa over red control in TMD8 lymphoma cells), 4 h
Summary of the method: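 Compounds up to 46 uM were incubated four hours with TMD8 cells whose green CBG68 luciferase is fused to IkappaBalpha; red CBR luminescence normalised the signal, and concentration-effect curves were fitted to fusion, red and ratio data.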

[1] = measured here: CBR red luminescence, cell number
[2] = measured here: IkBa-CBG green luminescence

Compound: CCN(CC)S(=O)(=O)c1cccc(C(=O)Nc2ccc3c(c2)OCO3)c1
- AC50 [1]: 1.41 µM [falling, partial curve, poor fit]

Compound: CN=c1scc(-c2ccco2)n1/N=C/c1ccc(O)c(O)c1
- AC50 [1]: 35.5 µM [falling, single point]

Compound: C=C(C)C(=O)Oc1ccc(N2C(=O)[C@@H]3C4C=CC(C4)[C@@H]3C2=O)cc1
- AC50 [1]: 35.5 µM [falling, single point]

Compound: O=C(c1ccc(CS(=O)(=O)c2ccc(Br)cc2)o1)N1CCCC1
- AC50 [1]: 0.517 µM [falling, full curve]

Compound: O=C(NCc1ccccc1)C1CCN(C(=O)NCc2ccccc2)CC1
- AC50 [1]: 5.62 µM [rising, single point]

Compound: CC(=O)CCS(=O)(=O)c1ccc(NC(C)=O)cc1
- AC50 [1]: 18.4 µM [falling, single point]

Compound: O=C1NN=C(c2ccccc2)CC1c1c[nH]c2ccccc12 (stereo unspecified)
- AC50 [1]: 2.24 µM [falling, full curve, poor fit]

Compound: C[C@H]1COC(=O)[C@@H](Cc2ccc(F)cc2)C/C=C\C[C@@H](CC(=O)NCCO)C(=O)N1
- AC50 [1]: 6.51 µM [falling, single point]

Compound: N#C/C(=C\c1ccc(O)cc1)c1nc2ccccc2o1
- AC50 [1]: 35.5 µM [falling, single point]

Compound: Clc1cccc(Cl)c1/C=C/c1ccn[nH]1
- AC50 [1]: 22.4 µM [rising, partial curve, poor fit]

Compound: OC(c1ccccc1)c1nc2ccccc2[nH]1 (stereo unspecified)
- AC50 [1]: 11.2 µM [rising, partial curve]

Compound: O=C(COC(=O)c1c2c(nc3ccccc13)/C(=C/c1cccc([N+](=O)[O-])c1)CCC2)NC1CCS(=O)(=O)C1 (stereo unspecified)
- AC50 [2]: 20.6 µM [rising, partial curve, poor fit]

Compound: O=C(Nc1cccc(-c2nc3ncccc3o2)c1)c1sc2cc(Cl)ccc2c1Cl
- AC50 [1]: 10 µM [rising, partial curve]

Compound: COc1ccc(C=O)cc1OS(=O)(=O)c1ccc(NC(C)=O)cc1
- AC50 [2]: 11.6 µM [falling, partial curve]

Compound: CC(OC(=O)C1CC1)C(=O)Nc1ccc([N+](=O)[O-])cc1Cl (stereo unspecified)
- AC50 [1]: 35.5 µM [rising, partial curve, poor fit]

Compound: COc1ccc(S(=O)(=O)Nc2nc3ccccc3s2)cc1
- AC50 [1]: 29.1 µM [rising, single point]

Compound: Cc1cc(C)cc(NC(=O)N2CCNC(=O)C2CC(=O)Nc2cc(Cl)ccc2Cl)c1 (stereo unspecified)
- AC50 [1]: 35.5 µM [falling, single point]

Compound: CC(C)(C)N(Cc1cc2ccccc2[nH]c1=O)C(=O)C1CCCCC1
- AC50 [1]: 6.51 µM [falling, single point]

Compound: CCOC(=O)Nc1nc(-c2ccccc2)c(C(=O)c2ccc(Cl)cc2)s1
- AC50 [1]: 16.4 µM [rising, partial curve]

Compound: COCCNC(=O)C(c1ccncc1)N(C(=O)Cn1nnc2ccccc21)c1ccc(OC)cc1 (stereo unspecified)
- AC50 [1]: 1.84 µM [falling, partial curve, poor fit]

Compound: O=C(Nc1ccc(F)cc1)Nc1cc(S(=O)(=O)N2CCOCC2)ccc1N1CCCC1
- AC50 [1]: 17.8 µM [rising, single point]

Compound: N#C/C(=N/O)c1nc(-c2ccc(F)cc2)cs1
- AC50 [1]: 3.66 µM [rising, full curve, poor fit]

Compound: Cn1c(=O)oc2cc(S(=O)(=O)Nc3ccc4c(c3)OCO4)ccc21
- AC50 [1]: 15.8 µM [falling, single point]

Compound: Cc1c(C)c(C)c(CN2CCCC2)c(C)c1C
- AC50 [1]: 3.16 µM [rising, full curve, poor fit]

Compound: COC(=O)CC1COc2ccccc2N1S(=O)(=O)c1ccc(OC)cc1 (stereo unspecified)
- AC50 [1]: 25.1 µM [rising, single point]

Compound: Cc1cccn2c(=O)c3cc(C#N)c(=NC(=O)c4ccco4)n(Cc4ccco4)c3nc12
- AC50 [1]: 1.58 µM [falling, partial curve, poor fit]
- AC50 [2]: 2.51 µM [rising, full curve, poor fit]

Compound: O=C(/C=C/c1ccccc1)NC1CCSC1=O (stereo unspecified)
- AC50 [1]: 18.4 µM [falling, single point]

Compound: O=C(CSc1ccsc1[N+](=O)[O-])Nc1cc(F)ccc1F
- AC50 [1]: 0.794 µM [falling, full curve, poor fit]

Compound: O=C(CSc1nnnn1C1CCCC1)N1CCCc2ccccc21
- AC50 [1]: 18.4 µM [rising, partial curve, poor fit]

Compound: Cc1nc(NC(=O)CSC2=NCCS2)sc1C(=O)N(C)C
- AC50 [1]: 7.94 µM [rising, full curve, poor fit]

Compound: Cc1ccc(OCC(=O)Nc2ccc(-c3nc4ncccc4o3)cc2)c(C)c1
- AC50 [1]: 6.51 µM [rising, partial curve, poor fit]

Compound: CCC(=O)Nc1ccc2c(c1)nc1n2CCSC1
- AC50 [1]: 22.4 µM [rising, partial curve, poor fit]

Compound: CCCc1c(C)nc2ccccc2c1SCCC#N
- AC50 [1]: 25.9 µM [falling, single point]

Compound: NC(=S)N=Nc1c(O)n(CCCl)c2ccc(Br)cc12
- AC50 [1]: 14.1 µM [rising, partial curve, poor fit]
- AC50 [2]: 7.08 µM [falling, partial curve]

Compound: Fc1ccc(COc2ccc(-c3nnco3)cc2)cc1
- AC50 [1]: 0.631 µM [rising, full curve, poor fit]

Compound: COc1cccc(/C=C2\C(=O)N(c3cccc(C)c3)C(=O)c3ccccc32)c1
- AC50 [1]: 29.1 µM [falling, single point]

Compound: COc1cc2c(cc1OC)C(C)N(C(=O)Nc1cc(C)cc(C)c1)CC2 (stereo unspecified)
- AC50 [1]: 11.2 µM [rising, single point]

Compound: Cc1cccc(NS(=O)(=O)c2ccc(-c3cnc(C4CC4)o3)cc2)c1
- AC50 [1]: 12.6 µM [rising, single point]
- AC50 [2]: 22.4 µM [falling, single point]

Compound: COc1cccc(NC(=O)c2cc(C(=O)Nc3cccc(OC)c3)n(C)n2)c1
- AC50 [1]: 29.1 µM [falling, single point]

Compound: Cc1ccsc1-c1nc(CN2C[C@@H](C)O[C@@H](C)C2)c(C)o1
- AC50 [1]: 35.5 µM [rising, single point]

Compound: COC(=O)c1cccnc1Oc1ccccc1
- AC50 [1]: 2.51 µM [rising, partial curve, poor fit]

Compound: CSCCC(NC(=O)c1ccc([N+](=O)[O-])cc1Cl)C(=O)OCC(=O)C12CC3CC(CC(C3)C1)C2 (stereo unspecified)
- AC50 [1]: 20.6 µM [falling, partial curve, poor fit]

Compound: CCc1ccc2nc(NC(=O)c3cc(C)on3)sc2c1
- AC50 [1]: 12.6 µM [falling, single point]

Compound: O=C(CCSc1ccc(Cl)cc1)c1ccco1
- AC50 [1]: 35.5 µM [falling, single point]

Compound: Cc1cc(C)cc(NC(=O)CCc2c(C)nn(-c3ccc(N4CCCCC4)nn3)c2C)c1
- AC50 [1]: 4.47 µM [rising, partial curve, poor fit]

Compound: Cc1cccc(Sc2c(C=O)c3ccccc3n2C)c1
- AC50 [1]: 1.78 µM [falling, partial curve, poor fit]

Compound: COc1ccc(-c2nc(C(N)=O)c3[nH]c(=O)n(-c4cccc(Cl)c4)c3n2)cc1OC
- AC50 [1]: 1.03 µM [falling, full curve]

Compound: COc1ccc(N(CC(=O)Nc2cc([N+](=O)[O-])ccc2C)S(C)(=O)=O)cc1OC
- AC50 [1]: 35.5 µM [falling, single point]

Compound: COc1cccc(-c2nc(CS(=O)(=O)CC(=O)NCCc3ccc(OC)cc3OC)c(C)o2)c1
- AC50 [1]: 1.58 µM [rising, partial curve, poor fit]

Compound: Cc1ccc(NC(=O)c2noc3c2CCC3)cc1C
- AC50 [1]: 15.8 µM [falling, single point]

Compound: Cc1c(C)c(C)c2[nH]c(-c3ccc4c(c3)OCO4)nc2c1C
- AC50 [1]: 2.51 µM [falling, full curve]

Compound: C=CCC[C@H](Cc1ccc(F)cc1)C(=O)OC[C@@H](Cc1c[nH]c2ccccc12)NC(=O)[C@@H](CC=C)CC(=O)N(CCO)Cc1ccccc1
- AC50 [1]: 18.4 µM [falling, single point]

Compound: COc1ccc(OC)c(Nc2nc(C)nc3c2oc2ccccc23)c1
- AC50 [1]: 5.62 µM [falling, single point]

Compound: CCOC(=O)C1(CCc2ccccc2)CCN(C2Cc3ccccc3C2)CC1
- AC50 [1]: 0.501 µM [rising, partial curve, poor fit]

Compound: CCCc1ccc(OCc2ccc(C(=O)OC)o2)c(OC)c1
- AC50 [1]: 0.411 µM [falling, full curve, poor fit]

Compound: CN(C)CCNc1ncnc2c1cnn2-c1ccc(Cl)cc1
- AC50 [1]: 29.1 µM [falling, single point]

Compound: Nn1c(SCC(=O)Nc2ccc(F)cc2)nnc1-c1cccnc1
- AC50 [1]: 5.8 µM [falling, full curve, poor fit]

Compound: CCC1=NN(C(=O)Cc2ccccc2)C(O)(c2ccncc2)C1 (stereo unspecified)
- AC50 [1]: 7.94 µM [falling, partial curve, poor fit]

Compound: O=C(NC1(O)C(=O)c2ccccc2C1=O)c1ccc(C(F)(F)F)cc1
- AC50 [1]: 22.4 µM [rising, single point]

Compound: O=C(O)c1cccc2c1-c1ccccc1/C2=N\Nc1ccccc1
- AC50 [1]: 6.31 µM [falling, full curve, poor fit]

Compound: O=C(/C=C/c1ccccc1)C1=C(O)C(=O)N(CCO)C1c1ccc2c(c1)OCO2 (stereo unspecified)
- AC50 [1]: 0.501 µM [rising, full curve, poor fit]

Compound: CCN1CCN(C(=O)C2CC(c3ccc(F)cc3)=NO2)CC1 (stereo unspecified)
- AC50 [1]: 0.517 µM [rising, partial curve, poor fit]

Compound: Cc1cccc(N2CCN(C(=O)Cn3ccc4ccccc4c3=O)CC2)c1C
- AC50 [1]: 1.84 µM [rising, full curve, poor fit]

Reference: PubChem BioAssay AID493014 (National Center for Advancing Translational Sciences (NCATS), 2011)
